Measured values from PubChem BioAssay AID2685 (National Center for Advancing Translational Sciences (NCATS), 2010).
The list shows a part of the results. Shown are side measurements of this screen, not its main read-out; they come without a call. Most of these compounds were active or inconclusive in the main read-out, so they are no random draw. Potencies come from curve fits of mixed quality, noted in brackets.

Test: qHTS Assay for Lipid Storage Modulators in Drosophila S3 Cells;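 on cell number change: cells counted by Cell Tracker Red CMTPX staining in the red channel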
Conditions: BODIPY lipid droplet fluorescence, 18-24 h; for cell number change: measured here: cell count max response, cells fed with added oleic acid
Method in brief: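 Drosophila S3 cells got compounds at several concentrations plus oleic acid (400 uM solution). Laser-scanning cytometry with 488 nm excitation read lipid droplets at 500-530 nm and cells at 575-640 nm. Percent activity was relative to 20 uM Triacsin C.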

[1] = measured here: cell number channel AC50, cells fed with added oleic acid
[2] = measured here: lipid fluorescence (Fed channel) AC50, cells fed with added oleic acid

CN(Cc1ccccc1)C(=O)COC(=O)c1ccc(=O)n(Cc2ccccc2)n1
cell number change: -8.28%
AC50 [1]: 1.16 µM [falling, full curve]

O=C(CSc1nnc(-c2ccco2)c(-c2ccco2)n1)c1ccccc1
cell number change: 7.5%
AC50 [2]: 0.00517 µM [falling, full curve, poor fit]

COc1ccc(/C=C/C(=O)C2CC2)cc1Cn1nc(C)c([N+](=O)[O-])c1C
cell number change: 4.75%
AC50 [2]: 0.411 µM [rising, full curve]

Cc1ccc(C)c(NS(=O)(=O)c2cc(C(=O)Nc3cccc(N(C)S(C)(=O)=O)c3)ccc2C)c1
AC50 [1]: 0.517 µM [rising, full curve]
AC50 [2]: 5.17 µM [rising, single point]

Nc1cc(C(=O)OCC(=O)NC(c2ccccc2)c2ccccc2)ccc1Cl
cell number change: 0.249%
AC50 [2]: 14.6 µM [rising, partial curve, poor fit]

O=C(CSc1nnc(-c2ccco2)n1-c1ccccc1Cl)Nc1cccc(C(=O)O)c1
cell number change: 11.1%
AC50 [2]: 29.1 µM [rising, single point]

Cc1cc(C)cc(N2CCN(C(=O)N3CCOCC3)CC2)c1
cell number change: -0.178%
AC50 [2]: 0.00517 µM [rising, full curve, poor fit]

COc1ccc2c(c1)CC(C(=O)Nc1ccc(Cl)cc1)/C(=N/O)O2 (configuration not stated)
cell number change: 13.1%
AC50 [2]: 0.00461 µM [rising, full curve, poor fit]

CC(=O)c1ccc(N(C(=O)c2csnn2)C(C(=O)NC(C)(C)C)c2cccs2)cc1 (configuration not stated)
cell number change: -2.72%
AC50 [2]: 0.13 µM [falling, full curve, poor fit]

CCC(CO)Oc1cc(NCc2ccccc2F)c2ncn(C(C)C)c2c1 (configuration not stated)
cell number change: 2.76%
AC50 [1]: 6.51 µM [falling, single point]
AC50 [2]: 6.51 µM [falling, single point]

COc1ccccc1CNC(=O)c1ccccc1NS(C)(=O)=O
cell number change: 87.5%
AC50 [1]: 18.4 µM [rising, single point]

COc1ccc(Cc2nnc(SCC(=O)NC3CCCCC3)n2C)cc1
cell number change: 6.17%
AC50 [2]: 25.9 µM [rising, single point]

COc1cccc(CC2(CO)CCCN(Cc3[nH]c4ccc(C)cc4c3C)C2)c1 (configuration not stated)
cell number change: -57.6%
AC50 [1]: 29.1 µM [falling, single point]
AC50 [2]: 20.6 µM [falling, single point]

c1ccc(CN2CCN(c3nc4ccccc4n4cnnc34)CC2)cc1
AC50 [2]: 0.146 µM [rising, single point]

Cc1ccc2[nH]c(=O)c3cc(C(=O)NCCC(C)C)sc3c2c1
cell number change: 15.3%

COc1ccc(S(=O)(=O)NCCC(=O)N2CCCC2)cc1N(C)S(C)(=O)=O
cell number change: 28.6%
AC50 [1]: 1.84 µM [rising, full curve, poor fit]

OCCN(CCO)c1ccc(C(c2ccccc2Cl)c2ccc(N(CCO)CCO)cc2Cl)c(Cl)c1
cell number change: -50%
AC50 [1]: 18.4 µM [falling, single point]
AC50 [2]: 18.4 µM [falling, single point]

COc1ccc2c(c1OC)C(=O)N(c1ccc(F)cc1)C2
AC50 [2]: 29.1 µM [rising, single point]

O=c1c(Cl)c(NCc2ccc(F)cc2)cnn1C12CC3CC(CC(C3)C1)C2
cell number change: 43.6%
AC50 [1]: 1.64 µM [rising, full curve, poor fit]
AC50 [2]: 0.731 µM [rising, partial curve, poor fit]

COc1ccc(NS(=O)(=O)c2cc(NC(=O)C3CC3)ccc2N2CCOCC2)cc1
cell number change: 37.6%
AC50 [1]: 20.6 µM [rising, single point]

O=C(CCCN1C(=O)c2ccccc2C1=O)Nc1sc2c(c1C(=O)NCc1ccco1)CCC2
cell number change: 13.8%
AC50 [1]: 0.461 µM [rising, full curve, poor fit]
AC50 [2]: 1.84 µM [rising, full curve]

COC(=O)/C=C1/S/C(=N/NC(=O)c2ccccc2)NC1=O
cell number change: 2.53%
AC50 [2]: 23.1 µM [rising, single point]

Cc1cccc(C)c1NC(=O)C1=C(O)c2sccc2N(C)S1(=O)=O
cell number change: 40.8%

O=C(N/N=C/c1cccc(O)c1)c1ccc(COc2ccc3c(c2)CCC3)o1
AC50 [1]: 0.731 µM [rising, full curve]
AC50 [2]: 2.31 µM [rising, partial curve]

O=c1c2ccccc2cnn1-c1ccc(Br)cc1
cell number change: -31.2%
AC50 [1]: 11.6 µM [falling, partial curve]
AC50 [2]: 0.146 µM [falling, partial curve]

Cn1nc(N)nc1N1CCN(c2ccc(F)cc2)CC1
cell number change: 19.5%

CS(=O)(=O)Nc1ccc(-c2ccc(/C=C3\SC(N)=NC3=O)o2)cc1
cell number change: 8.68%
AC50 [2]: 29.1 µM [rising, single point]

COc1ccc(NC(=O)c2sc3ncnc(N4CCN(c5ccccn5)CC4)c3c2C)cc1Cl
cell number change: 6.23%
AC50 [2]: 11.6 µM [falling, single point]

COc1ccc(Cl)cc1NC(=O)C/C(C)=N/NC(=O)COc1ccc(C)cc1
cell number change: 12.8%
AC50 [2]: 29.1 µM [falling, single point]

Cc1csc(NC(=O)C2CCCC2)n1
cell number change: 5.55%

CC(C)CCNC(=O)COC(=O)c1ccc(Br)o1
cell number change: -32.2%
AC50 [1]: 29.1 µM [falling, single point]

CN(CC(=O)Nc1cccc(F)c1)C(=O)c1ccc(OCc2ccccc2)cc1
cell number change: -1.3%
AC50 [2]: 4.11 µM [falling, single point]

CC(CN1CCN(C)CC1)OC(=O)c1ccc(Cl)cc1Cl (configuration not stated)
cell number change: -35.7%
AC50 [1]: 2.06 µM [falling, full curve, poor fit]

CCN(CC(=O)Nc1cccc(S(=O)(=O)N(C)c2ccccc2)c1)Cc1cccs1
cell number change: -10.6%
AC50 [2]: 0.326 µM [falling, full curve, poor fit]

O=C(Cn1cnc2ccccc21)N/N=C/c1cccc([N+](=O)[O-])c1
cell number change: -7.64%
AC50 [1]: 0.651 µM [rising, partial curve, poor fit]
AC50 [2]: 0.651 µM [rising, partial curve, poor fit]

O=C(CCCN1C(=O)/C(=C/c2cccs2)SC1=S)Nc1ccccc1O
cell number change: 54.3%
AC50 [1]: 23.1 µM [rising, single point]
AC50 [2]: 29.1 µM [falling, partial curve, poor fit]

CC1Nc2ccccc2C(=O)N1NS(C)(=O)=O (configuration not stated)
cell number change: -40.8%

COc1ccc(OC)c(N/C(=N\c2nc(C)cc(C)n2)NC(=O)c2ccco2)c1
cell number change: 0.431%
AC50 [2]: 6.51 µM [rising, single point]

CC(=O)c1c(C)[nH]c(C(=O)N2CCN(c3cc(Cl)ccc3C)CC2)c1C
AC50 [1]: 1.64 µM [rising, partial curve]
AC50 [2]: 2.31 µM [rising, full curve]

O=C(O)CSc1ncnc2c1sc1nc(-c3ccccc3)c3c(c12)CCC3
AC50 [1]: 0.58 µM [rising, single point]

COc1cc(/C=N/NC(=O)/C(=C\c2ccc3c(c2)OCO3)NC(=O)c2ccccc2)ccc1O
cell number change: 15.9%
AC50 [2]: 29.1 µM [rising, single point]

Cc1nnc(NC(=O)CSc2n[nH]c(-c3ccccc3)n2)s1
cell number change: 13.3%
AC50 [2]: 0.92 µM [rising, full curve, poor fit]

Nc1c(C(=O)NCCN2CCOCC2)c2nc3ccccc3nc2n1CCc1ccccc1F
cell number change: -35.2%
AC50 [1]: 32.6 µM [falling, single point]

COCCN(C(=O)CCC(=O)Nc1cc(C)on1)C(C(=O)NC1CCCC1)c1ccccc1F (configuration not stated)
cell number change: 4.76%

COc1ccccc1NC(=O)CSc1nc2ccccc2n1C(C)=O
cell number change: -6.45%

N#C/C(=C\c1ccc(F)c(F)c1)C(=O)NC1CCCCC1
cell number change: -9.64%
AC50 [2]: 7.31 µM [falling, partial curve]

CCn1c(CNc2ccccc2Cl)nnc1SCCN1CCCCC1
cell number change: -8.23%
AC50 [2]: 29.1 µM [rising, single point]

COC(=O)C1=C(C)N(Cc2ccccc2)C(=NCCN2CCOCC2)N[C@H]1CCc1ccccc1
cell number change: -14.3%
AC50 [2]: 0.92 µM [falling, single point]

COc1cc(C2N(c3ccccc3)CCN2c2ccccc2)cc(OC)c1OC
cell number change: 7.81%

CN1CCCN(S(=O)(=O)c2cccc(Cl)c2Cl)CC1
cell number change: -32.4%
AC50 [1]: 0.291 µM [falling, full curve, poor fit]

COc1ccc2c(COC(=O)CC3Sc4ccccc4NC3=O)cc(=O)oc2c1 (configuration not stated)
cell number change: 16.2%

COc1ccc(NC(=O)CN(C)C(=O)c2cc(-c3ccc(C)o3)nc3ccccc23)cc1
AC50 [2]: 3.26 µM [rising, single point]

CN(C(=O)CSc1ccccc1C(=O)O)C1CCCCC1
cell number change: 46.8%
AC50 [1]: 29.1 µM [rising, single point]

CC(C)(C)/C(COc1ccccc1[N+](=O)[O-])=N/O
cell number change: 4.4%
AC50 [2]: 0.112 µM [falling, full curve, poor fit]

COc1ccc(CN2CCN(C3CCSCC3)CC2CCO)c(C)c1C (configuration not stated)
cell number change: 7.2%
AC50 [2]: 11.6 µM [rising, single point]

COc1ccc(/C(O)=C2/C(=O)C(=O)N(CCCN3CCOCC3)C2c2ccc(N(C)C)cc2)cc1 (configuration not stated)
cell number change: 1.09%
AC50 [2]: 29.1 µM [rising, single point]

CC(C)c1nnc(NC(=O)c2ccc(S(=O)(=O)N3CCOCC3)cc2)s1
AC50 [1]: 3.26 µM [rising, single point]
AC50 [2]: 4.61 µM [rising, single point]

Cc1ccc2c(NC(=O)c3ccco3)cccc2n1
cell number change: -19.1%

Cc1cccc(NS(=O)(=O)c2cc3c(cc2C)n(C)c(=O)c(=O)n3C)c1
cell number change: -15.6%
AC50 [2]: 10.3 µM [falling, partial curve]
